The results in this text go back to paper doi:10.1101/2021.01.29.428913.

Protein sequences, listed by entry. Tags and fused reporters are not part of them. Lines headed by an entry give the natural chain unless they say otherwise; changes in a name come on top.
UniProt Q9W2S2: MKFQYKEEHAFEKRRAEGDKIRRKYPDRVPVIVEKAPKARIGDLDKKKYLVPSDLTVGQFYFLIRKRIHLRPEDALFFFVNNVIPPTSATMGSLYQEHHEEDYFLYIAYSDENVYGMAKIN
UniProt Q9VWX2: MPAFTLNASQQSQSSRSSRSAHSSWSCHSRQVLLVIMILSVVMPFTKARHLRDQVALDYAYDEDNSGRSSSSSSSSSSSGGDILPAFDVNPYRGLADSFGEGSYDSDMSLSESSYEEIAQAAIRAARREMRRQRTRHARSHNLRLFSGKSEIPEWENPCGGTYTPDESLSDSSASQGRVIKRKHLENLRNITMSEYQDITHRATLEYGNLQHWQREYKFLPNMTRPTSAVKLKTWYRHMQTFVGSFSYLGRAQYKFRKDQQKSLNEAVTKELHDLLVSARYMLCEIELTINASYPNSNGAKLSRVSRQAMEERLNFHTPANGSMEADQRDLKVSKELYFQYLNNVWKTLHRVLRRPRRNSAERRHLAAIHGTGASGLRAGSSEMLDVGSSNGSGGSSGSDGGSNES

These are yes or no findings as the source states them, for the method shown. In cells and extracts the contact can be indirect. Binding can be weak; no strength is given.

In this assay the target is Atg8-Myc (Drosophila melanogaster) (UniProt Q9W2S2). In words: co-IP.

Upd2-WT::GFP (from UniProt Q9VWX2): the binding result is on record as “binds”.
